From the supplement of paper PMC10849652
Some of the results follow.

By UniProt entry, the sequences of proteins in these tests, tags left out. Where a name states a change or a piece, a line headed by the entry shows the natural chain unless it says otherwise.
UniProt Q9H3Z4: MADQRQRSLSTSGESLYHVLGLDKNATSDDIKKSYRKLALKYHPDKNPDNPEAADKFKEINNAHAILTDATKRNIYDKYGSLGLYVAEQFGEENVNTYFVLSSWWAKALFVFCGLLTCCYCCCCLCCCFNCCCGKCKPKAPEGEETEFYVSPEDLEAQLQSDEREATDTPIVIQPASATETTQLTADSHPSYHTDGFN
UniProt Q96EV8: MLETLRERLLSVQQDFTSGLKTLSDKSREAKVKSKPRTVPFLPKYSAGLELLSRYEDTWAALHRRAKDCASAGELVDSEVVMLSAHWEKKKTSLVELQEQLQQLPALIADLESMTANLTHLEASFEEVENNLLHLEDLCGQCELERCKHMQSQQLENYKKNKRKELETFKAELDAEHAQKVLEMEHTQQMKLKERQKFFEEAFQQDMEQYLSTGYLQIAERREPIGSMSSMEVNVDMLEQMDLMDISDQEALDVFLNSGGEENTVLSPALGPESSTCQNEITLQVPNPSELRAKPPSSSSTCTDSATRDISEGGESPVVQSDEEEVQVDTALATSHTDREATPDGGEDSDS
UniProt Q5JPH6: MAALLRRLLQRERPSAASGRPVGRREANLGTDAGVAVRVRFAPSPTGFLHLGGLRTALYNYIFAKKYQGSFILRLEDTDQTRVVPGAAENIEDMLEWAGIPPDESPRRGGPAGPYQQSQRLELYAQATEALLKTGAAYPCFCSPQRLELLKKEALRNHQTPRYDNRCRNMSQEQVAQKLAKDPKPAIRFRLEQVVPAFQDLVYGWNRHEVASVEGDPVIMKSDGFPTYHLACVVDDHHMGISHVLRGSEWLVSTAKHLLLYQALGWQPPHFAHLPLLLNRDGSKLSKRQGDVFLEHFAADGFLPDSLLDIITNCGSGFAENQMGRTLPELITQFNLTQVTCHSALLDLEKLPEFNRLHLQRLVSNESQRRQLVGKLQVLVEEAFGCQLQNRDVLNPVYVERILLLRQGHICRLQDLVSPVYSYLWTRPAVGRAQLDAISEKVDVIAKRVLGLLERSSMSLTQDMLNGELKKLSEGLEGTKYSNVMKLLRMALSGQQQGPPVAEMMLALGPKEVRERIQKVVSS
UniProt P50570: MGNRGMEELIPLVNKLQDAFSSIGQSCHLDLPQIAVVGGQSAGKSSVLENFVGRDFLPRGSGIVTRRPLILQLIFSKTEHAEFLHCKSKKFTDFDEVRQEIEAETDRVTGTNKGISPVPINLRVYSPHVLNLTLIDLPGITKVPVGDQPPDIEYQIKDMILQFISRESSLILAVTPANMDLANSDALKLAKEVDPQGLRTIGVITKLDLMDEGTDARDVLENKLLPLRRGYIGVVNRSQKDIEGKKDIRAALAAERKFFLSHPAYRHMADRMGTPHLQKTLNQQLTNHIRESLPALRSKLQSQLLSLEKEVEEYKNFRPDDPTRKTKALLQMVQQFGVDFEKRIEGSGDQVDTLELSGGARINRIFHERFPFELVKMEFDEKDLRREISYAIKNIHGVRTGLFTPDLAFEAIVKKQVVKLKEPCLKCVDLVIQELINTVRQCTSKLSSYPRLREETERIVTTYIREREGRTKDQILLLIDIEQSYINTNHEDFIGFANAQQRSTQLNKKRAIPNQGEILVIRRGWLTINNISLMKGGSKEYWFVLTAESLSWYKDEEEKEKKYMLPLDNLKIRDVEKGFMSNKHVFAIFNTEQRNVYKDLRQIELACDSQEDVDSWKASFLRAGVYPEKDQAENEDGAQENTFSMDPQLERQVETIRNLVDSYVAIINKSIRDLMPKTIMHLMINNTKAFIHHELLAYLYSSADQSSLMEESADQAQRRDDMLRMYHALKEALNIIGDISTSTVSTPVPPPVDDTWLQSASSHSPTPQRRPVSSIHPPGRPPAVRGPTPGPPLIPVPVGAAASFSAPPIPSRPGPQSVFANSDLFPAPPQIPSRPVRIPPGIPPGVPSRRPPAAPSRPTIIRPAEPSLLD
UniProt Q7L591: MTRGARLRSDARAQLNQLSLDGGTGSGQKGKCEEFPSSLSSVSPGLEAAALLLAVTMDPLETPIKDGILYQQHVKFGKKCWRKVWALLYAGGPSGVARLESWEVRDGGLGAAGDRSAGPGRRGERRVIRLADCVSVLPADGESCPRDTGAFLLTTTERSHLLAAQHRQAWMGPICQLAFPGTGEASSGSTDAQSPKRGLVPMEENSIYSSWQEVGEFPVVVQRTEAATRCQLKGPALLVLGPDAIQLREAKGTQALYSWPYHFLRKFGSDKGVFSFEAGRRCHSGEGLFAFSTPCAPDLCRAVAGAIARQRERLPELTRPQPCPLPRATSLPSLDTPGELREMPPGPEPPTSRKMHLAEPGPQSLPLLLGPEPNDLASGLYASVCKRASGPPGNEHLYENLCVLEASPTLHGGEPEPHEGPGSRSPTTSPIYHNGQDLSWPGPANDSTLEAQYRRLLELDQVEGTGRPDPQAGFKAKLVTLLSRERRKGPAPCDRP
UniProt Q56P03: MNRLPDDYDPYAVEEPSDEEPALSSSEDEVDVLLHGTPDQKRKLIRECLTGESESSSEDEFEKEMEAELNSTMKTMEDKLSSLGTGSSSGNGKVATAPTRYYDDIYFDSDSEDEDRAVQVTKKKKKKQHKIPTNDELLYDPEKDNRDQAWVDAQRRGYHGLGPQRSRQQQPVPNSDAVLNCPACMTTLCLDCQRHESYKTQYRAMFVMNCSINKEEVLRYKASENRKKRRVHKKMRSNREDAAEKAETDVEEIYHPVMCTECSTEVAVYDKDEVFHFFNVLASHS
UniProt Q9H410: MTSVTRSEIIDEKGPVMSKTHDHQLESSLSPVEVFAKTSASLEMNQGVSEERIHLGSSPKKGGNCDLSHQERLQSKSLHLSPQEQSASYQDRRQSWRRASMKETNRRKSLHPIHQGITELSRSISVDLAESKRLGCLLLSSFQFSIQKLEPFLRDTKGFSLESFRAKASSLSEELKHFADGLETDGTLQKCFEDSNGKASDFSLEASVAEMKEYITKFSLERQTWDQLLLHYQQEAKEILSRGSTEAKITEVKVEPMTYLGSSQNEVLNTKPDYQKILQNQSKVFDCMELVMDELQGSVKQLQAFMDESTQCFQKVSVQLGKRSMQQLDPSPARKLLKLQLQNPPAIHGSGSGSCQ
UniProt Q9BV94: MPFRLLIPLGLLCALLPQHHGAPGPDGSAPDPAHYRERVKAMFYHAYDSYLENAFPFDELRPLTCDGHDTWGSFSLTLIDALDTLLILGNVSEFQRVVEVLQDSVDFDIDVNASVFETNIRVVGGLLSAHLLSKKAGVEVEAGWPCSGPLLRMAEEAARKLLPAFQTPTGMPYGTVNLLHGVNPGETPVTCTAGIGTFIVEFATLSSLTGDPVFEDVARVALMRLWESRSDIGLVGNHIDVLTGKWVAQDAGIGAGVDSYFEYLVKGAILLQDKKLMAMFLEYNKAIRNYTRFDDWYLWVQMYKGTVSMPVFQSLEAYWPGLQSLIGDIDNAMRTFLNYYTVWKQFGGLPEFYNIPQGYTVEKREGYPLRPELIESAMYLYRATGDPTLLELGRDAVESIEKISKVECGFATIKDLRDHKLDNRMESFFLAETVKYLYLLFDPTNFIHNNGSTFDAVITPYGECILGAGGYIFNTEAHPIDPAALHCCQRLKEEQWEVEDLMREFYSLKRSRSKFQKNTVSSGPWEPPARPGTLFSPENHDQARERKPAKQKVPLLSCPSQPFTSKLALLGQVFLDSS

Experiments:
Assay in all cases: log2 fold change, soluble protein after heating vs DMSO (PISA); higher = thermal stabilisation; K562 cells, 10 uM, 30 min; active = over 0.2 and 3.5 SD of the protein, either way, in both replicates (recomputed)
[1] = compound: CS(=O)(=O)c1ccc(-c2cnc(N)c(C(=O)Nc3ccccc3)n2)cc1
How it was run: (§1)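 Thermal stability values are relative to control samples and come from duplicates. They are expressed as log2 fold changes. For measurement, K562 cells (2×10^6 cells/mL) received 10 μM compound for 30 min, and aliquots were heated for 3 min over 48°C-58°C, pooled, and extracted at 4°C in PBS with 0.5% NP-40. Soluble protein, the supernatant after 21,000xg for 90 min, was quantified by TMTpro 16plex LC-MS/MS with equalised channel sums.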

crizotinib = compound: C[C@@H](Oc1cc(-c2cnn(C3CCNCC3)c2)cnc1N)c1c(Cl)ccc(F)c1Cl [crizotinib]
How it was run: as §1

[2] = compound: C[C@H](C1=CC=C(C=C1)C(=O)NC2=C3C=CNC3=NC=C2)N
How it was run: as §1

duvelisib = compound: C[C@H](Nc1ncnc2nc[nH]c12)c1cc2cccc(Cl)c2c(=O)n1-c1ccccc1 [duvelisib]
How it was run: as §1

gandotinib = compound: Cc1cc(Nc2cc(CN3CCOCC3)c3nc(C)c(Cc4ccc(Cl)cc4F)n3n2)n[nH]1 [gandotinib]
How it was run: as §1

tozasertib = compound: Cc1cc(Nc2cc(N3CCN(C)CC3)nc(Sc3ccc(NC(=O)C4CC4)cc3)n2)n[nH]1 [tozasertib]
How it was run: as §1

[3] = compound: Cc1cc(SCc2sc(-c3ccc(C(F)(F)F)cc3)nc2C)ccc1OCC(=O)O
How it was run: as §1

doramapimod = compound: Cc1ccc(-n2nc(C(C)(C)C)cc2NC(=O)Nc2ccc(OCCN3CCOCC3)c3ccccc23)cc1 [doramapimod]
How it was run: as §1

[4] = compound: Cc1cccc(CC(=O)N2CCc3c2ccc(-c2cn(C)c4ncnc(N)c24)c3F)n1
How it was run: as §1

dasatinib = compound: Cc1nc(Nc2ncc(C(=O)Nc3c(C)cccc3Cl)s2)cc(N2CCN(CCO)CC2)n1 [dasatinib]
How it was run: as §1

[5] = compound: Cn1cc(-c2ccc3c(c2)CCN3C(=O)Cc2cccc(C(F)(F)F)c2)c2c(N)ncnc21
How it was run: as §1

tipifarnib = compound: Cn1cncc1[C@@](N)(c1ccc(Cl)cc1)c1ccc2c(c1)c(-c1cccc(Cl)c1)cc(=O)n2C [tipifarnib]
How it was run: as §1

mubritinib = compound: FC(F)(F)c1ccc(/C=C/c2nc(COc3ccc(CCCCn4ccnn4)cc3)co2)cc1 [mubritinib]
How it was run: as §1

[6] = compound: C[C@@H]1COCCN1C2=NC(=NC(=C2)C3(CC3)S(=O)(=O)C)C4=C5C=CNC5=CC=C4
How it was run: as §1

ispinesib = compound: Cc1ccc(C(=O)N(CCCN)[C@@H](c2nc3cc(Cl)ccc3c(=O)n2Cc2ccccc2)C(C)C)cc1 [ispinesib]
How it was run: as §1

bafetinib = compound: Cc1ccc(NC(=O)c2ccc(CN3CC[C@H](N(C)C)C3)c(C(F)(F)F)c2)cc1Nc1nccc(-c2cncnc2)n1 [bafetinib]
How it was run: as §1

nilotinib = compound: Cc1cn(-c2cc(NC(=O)c3ccc(C)c(Nc4nccc(-c5cccnc5)n4)c3)cc(C(F)(F)F)c2)cn1 [nilotinib]
How it was run: as §1

[7] = compound: Cc1nc(Nc2n[nH]c3c2CN(C(=O)N[C@H](CN(C)C)c2ccccc2)C3(C)C)c2sccc2n1
How it was run: as §1

[8] = compound: Cc1ncc(-c2ccnc(Nc3ccc(S(C)(=O)=O)cc3)n2)n1C(C)C
How it was run: as §1

[9] = compound: Cn1cc(-c2ccc3nnc(C(F)(F)c4ccc5ncccc5c4)n3n2)cn1
How it was run: as §1

Measured: log2 fold change

DNPEP (UniProt B9ZVU2)
inactive: [1] 0.022 | crizotinib 0.031 | [2] -0.005 | duvelisib 0.211 | gandotinib 0.089 | tozasertib 0.085 | [3] 0.15 | doramapimod -0.003 | [4] 0.013 | dasatinib -0.027 | [5] -0.047 | tipifarnib -0.098 | mubritinib -0.005

DOCK11, A0A0J9YW64
inactive: [1] 0.206 | crizotinib 0.19 | doramapimod 0.032 | mubritinib 0.064

DNAJC5 (UniProt Q9H3Z4)
inactive: [1] 0.056 | crizotinib 0.192 | [6] -0.083 | duvelisib -0.103 | gandotinib 0.035 | tozasertib -0.123 | [3] 0.041 | doramapimod -0.071 | ispinesib 0.088 | bafetinib -0.081 | [4] -0.059 | nilotinib 0.024 | [7] 0.009 | dasatinib 0.054 | [8] 0.119 | [9] -0.038 | tipifarnib 0.142 | mubritinib -0.008

DTNBP1 (UniProt Q96EV8)
inactive: [1] 0.093 | crizotinib 0 | [6] 0.079 | [2] -0.014 | gandotinib -0.104 | [3] 0.022 | doramapimod -0.009 | ispinesib -0.073 | bafetinib 0.014 | [4] 0.004 | nilotinib -0.047 | [7] -0.027 | dasatinib 0.072 | [8] 0.016 | [5] 0.053 | [9] 0.036 | tipifarnib -0.083 | mubritinib -0.081

EARS2 isoform 2 (UniProt Q5JPH6)
inactive: [1] 0.091 | crizotinib 0.046 | [6] 0.221 | duvelisib 0.157 | tozasertib -0.037 | [3] 0.145 | doramapimod -0.017 | ispinesib 0.139 | bafetinib 0.003 | nilotinib -0.284 | [7] -0.288 | dasatinib -0.325 | [8] -0.014 | [9] 0.231 | tipifarnib -0.085 | mubritinib -0.278

DNM2 isoform 4 (UniProt P50570)
inactive: [1] -0.302 | crizotinib -0.087 | [6] -0.039 | [2] -0.087 | gandotinib 0.126 | [3] 0.5 | doramapimod -0.203 | ispinesib 0.092 | bafetinib 0.154 | [4] 0.062 | nilotinib -0.006 | [7] 0.047 | dasatinib -0.007 | [8] -0.047 | [5] 0.006 | [9] 0.005 | mubritinib 0.108

DOK3 (UniProt Q7L591)
inactive: [1] -0.128 | [6] 0.046 | [2] -0.07 | duvelisib 0.164 | gandotinib 0.038 | tozasertib -0.177 | [3] -0.012 | bafetinib -0.083 | [4] -0.029 | dasatinib -0.072 | [5] 0.034 | tipifarnib 0.061 | mubritinib -0.081

Retrieved one by one from above (two):
EARS2 isoform 2 (UniProt Q5JPH6)
inactive: [1] 0.091 | crizotinib 0.046 | [6] 0.221 | duvelisib 0.157 | tozasertib -0.037 | [3] 0.145 | doramapimod -0.017 | ispinesib 0.139 | bafetinib 0.003 | nilotinib -0.284 | [7] -0.288 | dasatinib -0.325 | [8] -0.014 | [9] 0.231 | tipifarnib -0.085 | mubritinib -0.278

DNAJC5 (UniProt Q9H3Z4)
inactive: [1] 0.056 | crizotinib 0.192 | [6] -0.083 | duvelisib -0.103 | gandotinib 0.035 | tozasertib -0.123 | [3] 0.041 | doramapimod -0.071 | ispinesib 0.088 | bafetinib -0.081 | [4] -0.059 | nilotinib 0.024 | [7] 0.009 | dasatinib 0.054 | [8] 0.119 | [9] -0.038 | tipifarnib 0.142 | mubritinib -0.008

Continuation:

EAPP (UniProt Q56P03)
inactive: [1] -0.12 | crizotinib -0.061 | [2] -0.004 | duvelisib 0.068 | gandotinib -0.061 | tozasertib 0.066 | [3] -0.015 | doramapimod 0.012 | ispinesib 0.229 | [4] -0.069 | nilotinib -0.087 | [7] 0.123 | dasatinib -0.122 | [8] 0.059 | [5] -0.138 | [9] -0.228 | tipifarnib 0.03 | mubritinib 0.07

DSN1 (UniProt Q9H410)
inactive: [1] -0.015 | crizotinib -0.016 | [6] 0.086 | [2] -0.05 | [3] -0.07 | doramapimod 0.007 | ispinesib 0.055 | bafetinib 0.063 | nilotinib 0.082 | [7] -0.217 | dasatinib -0.242 | [8] 0.104 | [5] 0.041 | [9] 0.059 | tipifarnib 0.027 | mubritinib -0.03

EDEM2 (UniProt Q9BV94)
inactive: [1] 0.036 | crizotinib 0.024 | [6] -0.119 | [2] 0.163 | gandotinib -0.081 | [3] 0.111 | doramapimod 0.065 | ispinesib -0.04 | bafetinib 0.094 | [4] 0 | nilotinib -0.096 | [7] 0.003 | dasatinib 0.114 | [8] -0.011 | [5] -0.046 | [9] 0 | tipifarnib 0.15 | mubritinib -0.117
